# Reference: PMC10427642
# The chains behind the UniProt entries cited, without tags or fusion partners.
# UniProt O00425: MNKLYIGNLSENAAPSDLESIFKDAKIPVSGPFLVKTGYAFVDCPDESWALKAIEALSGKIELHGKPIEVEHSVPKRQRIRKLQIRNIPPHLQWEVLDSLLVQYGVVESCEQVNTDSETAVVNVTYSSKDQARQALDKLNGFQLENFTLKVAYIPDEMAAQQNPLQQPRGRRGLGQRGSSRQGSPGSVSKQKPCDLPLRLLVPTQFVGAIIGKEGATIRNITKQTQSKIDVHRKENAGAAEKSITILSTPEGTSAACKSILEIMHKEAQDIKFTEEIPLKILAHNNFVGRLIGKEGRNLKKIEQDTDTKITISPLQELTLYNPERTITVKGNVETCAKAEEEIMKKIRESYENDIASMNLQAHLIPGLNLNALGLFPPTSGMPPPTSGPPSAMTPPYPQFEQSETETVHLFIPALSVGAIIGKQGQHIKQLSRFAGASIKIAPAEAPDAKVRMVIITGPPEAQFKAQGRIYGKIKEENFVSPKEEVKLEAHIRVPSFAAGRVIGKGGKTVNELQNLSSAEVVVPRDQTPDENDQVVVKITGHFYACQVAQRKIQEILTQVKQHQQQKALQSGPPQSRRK
# UniProt Q15717: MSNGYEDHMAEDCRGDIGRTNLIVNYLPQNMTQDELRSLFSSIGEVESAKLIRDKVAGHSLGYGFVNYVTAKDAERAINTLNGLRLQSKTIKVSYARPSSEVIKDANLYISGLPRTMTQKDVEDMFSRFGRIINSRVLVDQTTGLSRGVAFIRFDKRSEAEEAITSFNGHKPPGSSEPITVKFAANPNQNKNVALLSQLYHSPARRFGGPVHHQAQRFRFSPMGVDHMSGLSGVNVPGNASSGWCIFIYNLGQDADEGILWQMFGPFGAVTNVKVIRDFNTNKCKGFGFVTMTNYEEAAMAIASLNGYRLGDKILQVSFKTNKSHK
# Results are given in words; binding and its absence hold for the method and conditions named. In cells and extracts the contact can be indirect. Some binding calls cover weakened binding; strength is not graded here.
# Assays:
# [1] = target: IGF2BP3 (human (endogenous in GC cells)) (UniProt O00425); test: co-IP; GC cells; precipitation with anti-IGF2BP3 or anti-HUR, Pierce Co-Immunoprecipitation Kit; also in cells transfected with NR_033928 siRNAs (less co-precipitate)
# [2] = target: HUR (human (endogenous in GC cells)) (UniProt Q15717); test: as above
binding [1],binding [2],Substance
binds,,HUR (from UniProt Q15717 1-326)
,binds,IGF2BP3 (from UniProt O00425 1-579)
